We go through six molecules from PubChem BioAssay AID256 (DTP/NCI, 2004).

Molecules are shown by their SMILES. The list does not hold the whole screen: it gathers tests that were run many times, whatever their T/C, doses with no T/C, and many T/C values between a quarter and a half above the control. Further doses and runs are listed elsewhere. T/C: endpoint of the treated group in % of that of the vehicle group. Some entries give survivors of the animals treated and no T/C: the source files T/C as zero there, which appears to mark a toxic dose or a test without result, not a measured value. Some survivor counts are full or nearly so, which does not show that the dose was tolerated: survival well below the control is almost never listed, so the zero probably covers shortened survival too. Counts of survivors are from the toxicity check (mostly the fifth day) where no day follows; animals may have died later. Schedules are NCI's codes, read here as Q, the interval in days (D) or hours (H), X, the number of doses. Some schedule codes hold Z or #, which are not explained here. Where survival is the endpoint, the PubChem record calls one and a half times the control and up active, and a quarter to a half above the control has no call in these data; cut-offs in other NCI protocols can differ. Additions like (4×) give the number of equal values in this list. Some T/C values are followed by the survivors on the day toxicity was checked, most often the fifth; without a count, all were alive then. Some doses were run more than once; the results are listed from low to high.

The subject of this assay is CD2F1 mice, L1210 leukemia ip, survival T/C. The assay is described as follows: NCI In Vivo Anticancer Drug Screen. Data for tumor model L1210 Leukemia (intraperitoneal) in CD2F1 (CDF1) mice. To be noted: higher T/C = longer survival. The method, boiled down:
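Compound-dosed mice with transplantable tumor versus matched vehicle controls; endpoint ratio T/C reported.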

[1] abbreviates: T/C endpoint: mean survival time, dose: 100.0 mg/kg/injection, schedule: Q04DX003 (ip), vehicle: saline.

For the molecule `COc1cccc2c1C(=O)c1c(O)c3c(c(O)c1C2=O)CC(O)(C(=O)CO)CC3OC1CC(N)C(O)C(C)O1` (stereo not drawn), the T/C was 137 % of control (T/C endpoint: mean survival time, dose: 1.25 mg/kg/injection, schedule: Q04DX003 (ip), vehicle: saline); 131 % of control (T/C endpoint: mean survival time, dose: 2.5 mg/kg/injection, schedule: Q04DX003 (ip), vehicle: saline, evaluated on day 30); 133 % of control (T/C endpoint: mean survival time, dose: 2.5 mg/kg/injection, schedule: Q04DX003 (ip), vehicle: saline, evaluated on day 60); 125 % of control (T/C endpoint: mean survival time, dose: 4.5 mg/kg/injection, schedule: Q01DX009 (ip), vehicle: water); 140 % of control (T/C endpoint: mean survival time, dose: 5.0 mg/kg/injection, schedule: Q04DX003 (ip), vehicle: saline, evaluated on day 30); 132 % of control (T/C endpoint: mean survival time, dose: 5.0 mg/kg/injection, schedule: Q04DX003 (ip), vehicle: saline, evaluated on day 60). For the same molecule, the T/C (T/C endpoint: mean survival time, dose: 9.0 mg/kg/injection, schedule: Q01DX009 (ip), vehicle: water) was 138 % of control; the T/C (T/C endpoint: mean survival time, dose: 18.0 mg/kg/injection, schedule: Q01DX009 (ip), vehicle: water) is 125 % of control; the T/C (T/C endpoint: mean survival time, dose: 40.0 mg/kg/injection, schedule: Q04DX003 (ip), vehicle: saline) is 127 % of control; the T/C (T/C endpoint: mean survival time, dose: 50.0 mg/kg/injection, schedule: Q01DX009 (ip), vehicle: water) was 140 % of control; the T/C (T/C endpoint: mean survival time, dose: 72.0 mg/kg/injection, schedule: Q01DX009 (ip), vehicle: water) is 134 % of control [5 of 6 alive]. Also, the survivor count (T/C endpoint: mean survival time, dose: 144.0 mg/kg/injection, schedule: Q01DX009 (ip), vehicle: water) is listed as 6 of 6.
In the case of `NC(=O)c1csc(C2OC(CO)C(O)C2O)n1` (stereo not drawn), the T/C is 146 % of control (T/C endpoint: mean survival time, dose: 12.5 mg/kg/injection, schedule: Q01DX009 (ip), vehicle: water); 131 % of control (T/C endpoint: mean survival time, dose: 25.0 mg/kg/injection, schedule: Q01DX005 (ip), vehicle: water); 125 % of control (T/C endpoint: mean survival time, dose: 37.5 mg/kg/injection, schedule: Q01DX005 (ip), vehicle: water); 129 and 136 % of control (T/C endpoint: mean survival time, dose: 50.0 mg/kg/injection, schedule: Q01DX005 (ip), vehicle: water); 136 % of control (T/C endpoint: mean survival time, dose: 75.0 mg/kg/injection, schedule: Q01DX005 (ip), vehicle: water); 144, 149, 158, 165 % of control (T/C endpoint: mean survival time, dose: 100.0 mg/kg/injection, schedule: Q01DX005 (ip), vehicle: water). Moreover, the T/C reads like this: (T/C endpoint: mean survival time, dose: 200.0 mg/kg/injection, schedule: Q01DX005 (ip), vehicle: water) 157, 168, 169, 181 % of control; (T/C endpoint: median survival time, dose: 8.0 mg/kg/injection, schedule: Q#A X018 (ip), vehicle: water) 148 % of control; (T/C endpoint: median survival time, dose: 16.0 mg/kg/injection, schedule: Q01DX009 (ip), vehicle: water) 141 % of control; (T/C endpoint: median survival time, dose: 32.0 mg/kg/injection, schedule: Q01DX005 (iv), vehicle: water) 144 % of control [9 of 10 alive]; (T/C endpoint: median survival time, dose: 62.5 mg/kg/injection, schedule: Q01DX005 (ip), vehicle: water) 143 % of control; (T/C endpoint: median survival time, dose: 64.0 mg/kg/injection, schedule: Q01DX009 (ip), vehicle: water, evaluated on day 30) 163 and 165 % of control. Further, the T/C (T/C endpoint: median survival time, dose: 64.0 mg/kg/injection, schedule: Q01DX009 (ip), vehicle: water, evaluated on day 60) is 167 and 191 % of control; the T/C (T/C endpoint: median survival time, dose: 75.0 mg/kg/injection, schedule: Q01DX005 (ip), vehicle: water) is 143 % of control; the T/C (T/C endpoint: median survival time, dose: 125.0 mg/kg/injection, schedule: Q01DX005 (ip), vehicle: water) was 145 % of control; the T/C (T/C endpoint: median survival time, dose: 128.0 mg/kg/injection, schedule: Q01DX001 (iv), vehicle: water) was 126 % of control; the T/C (T/C endpoint: median survival time, dose: 128.0 mg/kg/injection, schedule: Q01DX009 (ip), vehicle: water, evaluated on day 30) is 177 and 185 % of control; the T/C (T/C endpoint: median survival time, dose: 128.0 mg/kg/injection, schedule: Q01DX009 (ip), vehicle: water, evaluated on day 60) is 192 and 209 % of control. In addition, the T/C (T/C endpoint: median survival time, dose: 256.0 mg/kg/injection, schedule: Q01DX001 (iv), vehicle: water) was 132 % of control; the T/C (T/C endpoint: median survival time, dose: 256.0 mg/kg/injection, schedule: Q01DX009 (ip), vehicle: water, evaluated on day 30) is 204 and 234 % of control; the T/C (T/C endpoint: median survival time, dose: 256.0 mg/kg/injection, schedule: Q01DX009 (ip), vehicle: water, evaluated on day 60) was 228 and 231 % of control; the T/C (T/C endpoint: median survival time, dose: 256.0 mg/kg/injection, schedule: Q04DX003 (ip), vehicle: water) was 148 % of control; the T/C (T/C endpoint: median survival time, dose: 512.0 mg/kg/injection, schedule: Q01DX001 (ip), vehicle: water) was 128 % of control; the T/C (T/C endpoint: median survival time, dose: 512.0 mg/kg/injection, schedule: Q01DX001 (iv), vehicle: water) is 146 % of control. Besides, the T/C (T/C endpoint: median survival time, dose: 512.0 mg/kg/injection, schedule: Q01DX001 (oral), vehicle: water) was 130 % of control; the T/C (T/C endpoint: median survival time, dose: 512.0 mg/kg/injection, schedule: Q01DX009 (ip), vehicle: water, evaluated on day 30) is 228 and 256 % of control; the T/C (T/C endpoint: median survival time, dose: 512.0 mg/kg/injection, schedule: Q01DX009 (ip), vehicle: water, evaluated on day 60) is 234 and 247 % of control; the T/C (T/C endpoint: median survival time, dose: 1024.0 mg/kg/injection, schedule: Q01DX001 (ip), vehicle: water) is 133 % of control; the T/C (T/C endpoint: median survival time, dose: 1024.0 mg/kg/injection, schedule: Q01DX001 (iv), vehicle: water) was 146 % of control; the T/C (T/C endpoint: median survival time, dose: 1024.0 mg/kg/injection, schedule: Q01DX001 (oral), vehicle: water) is 146 % of control. For the same molecule, the T/C runs as follows: (T/C endpoint: median survival time, dose: 1024.0 mg/kg/injection, schedule: Q01DX009 (ip), vehicle: water, evaluated on day 30) 217 and 262 % of control; (T/C endpoint: median survival time, dose: 1024.0 mg/kg/injection, schedule: Q01DX009 (ip), vehicle: water, evaluated on day 60) 119 and 170 % of control [9 of 10 alive]. For the same molecule, the survivor count by setting is: (T/C endpoint: mean survival time, dose: 600.0 mg/kg/injection, schedule: Q01DX005 (ip), vehicle: water) 5 of 6; (T/C endpoint: mean survival time, dose: 1200.0 mg/kg/injection, schedule: Q01DX005 (ip), vehicle: water) 4 of 6; (T/C endpoint: median survival time, dose: 1024.0 mg/kg/injection, schedule: Q#A X018 (ip), vehicle: water) 3 of 10; (T/C endpoint: median survival time, dose: 1200.0 mg/kg/injection, schedule: Q01DX005 (ip), vehicle: water) 0 of 6; (T/C endpoint: median survival time, dose: 2048.0 mg/kg/injection, schedule: Q01DX001 (ip), vehicle: water) 6 of 10; (T/C endpoint: median survival time, dose: 4096.0 mg/kg/injection, schedule: Q04DX003 (ip), vehicle: water) 2 of 10.
For `c1ccc(NC2CCN(C3(c4ccccc4)CCCCC3)CC2)cc1`, the survivor count (T/C endpoint: mean survival time, dose: 100.0 mg/kg/injection, schedule: Q04DX002 (ip), vehicle: saline) is reported as 1 of 3.
As for `ON(C(=Nc1ccccc1)c1ccccc1Cl)c1ccccc1`, the survivor count (T/C endpoint: mean survival time, dose: 25.0 mg/kg/injection, schedule: Q01DX009 (ip), vehicle: saline with Tween-80) is given as 2 of 6; the survivor count (T/C endpoint: mean survival time, dose: 50.0 mg/kg/injection, schedule: Q04DX003 (ip), vehicle: saline) is on record as 1 of 6; the survivor count under setting [1] was 0 of 6; the survivor count (T/C endpoint: mean survival time, dose: 200.0 mg/kg/injection, schedule: Q04DX003 (ip), vehicle: saline) is given as 0 of 6; the survivor count (T/C endpoint: mean survival time, dose: 400.0 mg/kg/injection, schedule: Q01DX001 (ip), vehicle: saline) is 0 of 6.
Regarding `O=C1CCCC1=P(c1ccccc1)(c1ccccc1)c1ccccc1`, the survivor count (T/C endpoint: mean survival time, dose: 400.0 mg/kg/injection, schedule: Q04DX003 (ip), vehicle: other) was 1 of 6.
On to `COc1cc2cc3c4cc(OC)c(OC)cc4cc[n+]3c(C)c2cc1OC`, for which the T/C runs as follows: (T/C endpoint: mean survival time, dose: 67.0 mg/kg/injection, schedule: Q04DX003 (ip), vehicle: saline) 125 % of control; (T/C endpoint: mean survival time, dose: 100.0 mg/kg/injection, schedule: Q04DX003 (ip), vehicle: saline with Tween-80) 134 % of control (2×); under setting [1], 125 and 131 % of control; (T/C endpoint: mean survival time, dose: 150.0 mg/kg/injection, schedule: Q04DX003 (ip), vehicle: saline) 131 % of control; (T/C endpoint: mean survival time, dose: 200.0 mg/kg/injection, schedule: Q04DX003 (ip), vehicle: saline with Tween-80) 136 % of control (2×); (T/C endpoint: mean survival time, dose: 400.0 mg/kg/injection, schedule: Q04DX003 (ip), vehicle: saline with Tween-80) 139 % of control (2×).
